{"sequences": {"note": "Chains of the proteins cited; added tags and fusions are not shown.", "UniProt Q68CZ2": "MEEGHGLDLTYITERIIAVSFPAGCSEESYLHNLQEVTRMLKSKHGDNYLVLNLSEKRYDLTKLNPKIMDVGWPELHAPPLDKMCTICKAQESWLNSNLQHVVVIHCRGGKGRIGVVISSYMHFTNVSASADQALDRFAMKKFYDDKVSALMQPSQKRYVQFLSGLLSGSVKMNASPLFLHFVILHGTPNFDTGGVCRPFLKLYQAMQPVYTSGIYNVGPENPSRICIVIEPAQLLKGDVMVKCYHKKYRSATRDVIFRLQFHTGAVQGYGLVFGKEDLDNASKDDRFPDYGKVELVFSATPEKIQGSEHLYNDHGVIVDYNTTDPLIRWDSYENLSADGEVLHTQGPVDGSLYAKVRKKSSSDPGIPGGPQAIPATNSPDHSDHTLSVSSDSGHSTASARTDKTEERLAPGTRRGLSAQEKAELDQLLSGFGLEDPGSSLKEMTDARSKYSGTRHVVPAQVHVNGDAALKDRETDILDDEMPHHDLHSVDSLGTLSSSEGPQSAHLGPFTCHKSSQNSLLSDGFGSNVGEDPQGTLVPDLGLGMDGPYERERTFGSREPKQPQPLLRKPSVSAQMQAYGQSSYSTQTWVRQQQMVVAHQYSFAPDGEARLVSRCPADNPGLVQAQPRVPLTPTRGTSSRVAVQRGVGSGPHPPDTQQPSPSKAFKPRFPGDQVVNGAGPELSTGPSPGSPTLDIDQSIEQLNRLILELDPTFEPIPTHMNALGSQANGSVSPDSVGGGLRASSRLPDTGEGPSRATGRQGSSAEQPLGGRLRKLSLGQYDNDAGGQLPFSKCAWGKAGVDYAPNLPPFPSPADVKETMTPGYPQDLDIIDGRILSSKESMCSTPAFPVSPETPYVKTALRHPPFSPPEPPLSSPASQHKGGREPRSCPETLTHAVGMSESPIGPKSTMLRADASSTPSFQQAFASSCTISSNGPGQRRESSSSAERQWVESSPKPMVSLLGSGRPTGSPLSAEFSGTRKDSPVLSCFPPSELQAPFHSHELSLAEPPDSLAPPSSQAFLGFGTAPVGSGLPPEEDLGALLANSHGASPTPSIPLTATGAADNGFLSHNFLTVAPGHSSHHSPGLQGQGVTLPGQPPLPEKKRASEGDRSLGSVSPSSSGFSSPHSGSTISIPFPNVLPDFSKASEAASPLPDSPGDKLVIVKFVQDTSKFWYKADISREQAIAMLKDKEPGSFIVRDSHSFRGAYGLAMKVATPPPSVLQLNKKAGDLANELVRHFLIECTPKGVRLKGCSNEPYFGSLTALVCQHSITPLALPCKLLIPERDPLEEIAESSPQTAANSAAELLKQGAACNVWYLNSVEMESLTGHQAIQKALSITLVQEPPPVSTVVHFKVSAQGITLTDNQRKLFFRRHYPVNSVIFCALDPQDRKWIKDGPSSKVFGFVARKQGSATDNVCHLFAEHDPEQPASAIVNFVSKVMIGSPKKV", "UniProt Q9Y490": "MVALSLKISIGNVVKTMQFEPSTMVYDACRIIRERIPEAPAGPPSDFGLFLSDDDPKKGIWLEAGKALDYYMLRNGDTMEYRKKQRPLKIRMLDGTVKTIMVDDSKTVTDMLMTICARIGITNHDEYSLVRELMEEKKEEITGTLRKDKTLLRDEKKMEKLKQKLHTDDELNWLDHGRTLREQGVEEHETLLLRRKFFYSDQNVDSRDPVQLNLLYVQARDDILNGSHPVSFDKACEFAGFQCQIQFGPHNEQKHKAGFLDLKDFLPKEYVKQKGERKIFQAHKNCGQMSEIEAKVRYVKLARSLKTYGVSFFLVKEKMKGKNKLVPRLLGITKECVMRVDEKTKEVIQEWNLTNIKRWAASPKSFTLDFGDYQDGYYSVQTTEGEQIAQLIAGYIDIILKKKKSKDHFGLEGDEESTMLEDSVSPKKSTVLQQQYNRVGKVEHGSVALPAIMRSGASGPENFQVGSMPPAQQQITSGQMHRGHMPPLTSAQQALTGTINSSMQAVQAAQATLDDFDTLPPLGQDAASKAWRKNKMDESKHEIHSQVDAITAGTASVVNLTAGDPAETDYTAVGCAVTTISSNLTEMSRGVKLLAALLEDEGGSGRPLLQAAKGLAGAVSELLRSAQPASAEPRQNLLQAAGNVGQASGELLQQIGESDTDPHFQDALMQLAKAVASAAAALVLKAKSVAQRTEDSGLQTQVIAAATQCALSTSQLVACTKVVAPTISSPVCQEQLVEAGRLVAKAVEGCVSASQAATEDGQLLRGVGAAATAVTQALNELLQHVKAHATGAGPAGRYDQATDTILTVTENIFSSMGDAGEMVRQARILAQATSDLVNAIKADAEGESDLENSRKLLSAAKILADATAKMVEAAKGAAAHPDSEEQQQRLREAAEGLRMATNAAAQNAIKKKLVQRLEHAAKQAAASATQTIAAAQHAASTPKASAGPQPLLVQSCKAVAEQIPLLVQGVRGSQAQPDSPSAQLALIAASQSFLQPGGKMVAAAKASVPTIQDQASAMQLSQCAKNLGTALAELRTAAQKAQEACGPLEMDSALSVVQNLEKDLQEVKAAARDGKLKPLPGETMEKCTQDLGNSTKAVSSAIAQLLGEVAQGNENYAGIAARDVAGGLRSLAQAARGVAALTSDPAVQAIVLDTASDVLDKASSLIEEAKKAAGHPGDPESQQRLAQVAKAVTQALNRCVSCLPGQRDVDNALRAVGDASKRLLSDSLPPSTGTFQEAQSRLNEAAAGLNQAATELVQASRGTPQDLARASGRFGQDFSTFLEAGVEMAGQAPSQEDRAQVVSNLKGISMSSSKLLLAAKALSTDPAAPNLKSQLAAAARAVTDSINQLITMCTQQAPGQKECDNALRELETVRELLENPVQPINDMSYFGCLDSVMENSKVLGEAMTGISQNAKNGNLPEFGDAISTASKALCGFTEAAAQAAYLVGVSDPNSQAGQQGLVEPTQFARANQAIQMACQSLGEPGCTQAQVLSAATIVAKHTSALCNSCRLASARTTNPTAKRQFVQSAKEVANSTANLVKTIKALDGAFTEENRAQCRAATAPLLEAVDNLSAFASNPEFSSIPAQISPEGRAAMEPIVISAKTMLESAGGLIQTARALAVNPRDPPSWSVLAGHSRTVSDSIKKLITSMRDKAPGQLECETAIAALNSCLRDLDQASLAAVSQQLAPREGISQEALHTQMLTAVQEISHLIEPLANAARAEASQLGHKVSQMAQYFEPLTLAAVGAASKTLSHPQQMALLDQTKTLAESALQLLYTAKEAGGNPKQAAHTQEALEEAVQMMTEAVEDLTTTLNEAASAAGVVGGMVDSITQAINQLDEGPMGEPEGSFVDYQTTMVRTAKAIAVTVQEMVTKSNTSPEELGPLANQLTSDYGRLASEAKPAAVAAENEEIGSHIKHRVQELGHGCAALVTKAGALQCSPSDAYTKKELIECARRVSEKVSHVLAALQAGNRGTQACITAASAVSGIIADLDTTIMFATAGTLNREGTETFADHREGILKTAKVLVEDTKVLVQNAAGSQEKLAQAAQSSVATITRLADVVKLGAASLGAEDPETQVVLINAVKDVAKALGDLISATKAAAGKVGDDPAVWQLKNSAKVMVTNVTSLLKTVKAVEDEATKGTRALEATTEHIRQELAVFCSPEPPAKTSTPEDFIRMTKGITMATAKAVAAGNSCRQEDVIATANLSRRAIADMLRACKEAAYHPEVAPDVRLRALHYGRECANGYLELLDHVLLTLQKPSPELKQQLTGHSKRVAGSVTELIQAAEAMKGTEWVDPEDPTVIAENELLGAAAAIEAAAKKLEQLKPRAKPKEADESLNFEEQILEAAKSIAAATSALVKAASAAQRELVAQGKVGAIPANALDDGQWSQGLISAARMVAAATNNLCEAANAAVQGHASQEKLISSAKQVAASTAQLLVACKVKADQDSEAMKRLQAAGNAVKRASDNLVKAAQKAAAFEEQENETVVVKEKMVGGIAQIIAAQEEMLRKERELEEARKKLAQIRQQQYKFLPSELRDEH", "UniProt Q9Y4G6": "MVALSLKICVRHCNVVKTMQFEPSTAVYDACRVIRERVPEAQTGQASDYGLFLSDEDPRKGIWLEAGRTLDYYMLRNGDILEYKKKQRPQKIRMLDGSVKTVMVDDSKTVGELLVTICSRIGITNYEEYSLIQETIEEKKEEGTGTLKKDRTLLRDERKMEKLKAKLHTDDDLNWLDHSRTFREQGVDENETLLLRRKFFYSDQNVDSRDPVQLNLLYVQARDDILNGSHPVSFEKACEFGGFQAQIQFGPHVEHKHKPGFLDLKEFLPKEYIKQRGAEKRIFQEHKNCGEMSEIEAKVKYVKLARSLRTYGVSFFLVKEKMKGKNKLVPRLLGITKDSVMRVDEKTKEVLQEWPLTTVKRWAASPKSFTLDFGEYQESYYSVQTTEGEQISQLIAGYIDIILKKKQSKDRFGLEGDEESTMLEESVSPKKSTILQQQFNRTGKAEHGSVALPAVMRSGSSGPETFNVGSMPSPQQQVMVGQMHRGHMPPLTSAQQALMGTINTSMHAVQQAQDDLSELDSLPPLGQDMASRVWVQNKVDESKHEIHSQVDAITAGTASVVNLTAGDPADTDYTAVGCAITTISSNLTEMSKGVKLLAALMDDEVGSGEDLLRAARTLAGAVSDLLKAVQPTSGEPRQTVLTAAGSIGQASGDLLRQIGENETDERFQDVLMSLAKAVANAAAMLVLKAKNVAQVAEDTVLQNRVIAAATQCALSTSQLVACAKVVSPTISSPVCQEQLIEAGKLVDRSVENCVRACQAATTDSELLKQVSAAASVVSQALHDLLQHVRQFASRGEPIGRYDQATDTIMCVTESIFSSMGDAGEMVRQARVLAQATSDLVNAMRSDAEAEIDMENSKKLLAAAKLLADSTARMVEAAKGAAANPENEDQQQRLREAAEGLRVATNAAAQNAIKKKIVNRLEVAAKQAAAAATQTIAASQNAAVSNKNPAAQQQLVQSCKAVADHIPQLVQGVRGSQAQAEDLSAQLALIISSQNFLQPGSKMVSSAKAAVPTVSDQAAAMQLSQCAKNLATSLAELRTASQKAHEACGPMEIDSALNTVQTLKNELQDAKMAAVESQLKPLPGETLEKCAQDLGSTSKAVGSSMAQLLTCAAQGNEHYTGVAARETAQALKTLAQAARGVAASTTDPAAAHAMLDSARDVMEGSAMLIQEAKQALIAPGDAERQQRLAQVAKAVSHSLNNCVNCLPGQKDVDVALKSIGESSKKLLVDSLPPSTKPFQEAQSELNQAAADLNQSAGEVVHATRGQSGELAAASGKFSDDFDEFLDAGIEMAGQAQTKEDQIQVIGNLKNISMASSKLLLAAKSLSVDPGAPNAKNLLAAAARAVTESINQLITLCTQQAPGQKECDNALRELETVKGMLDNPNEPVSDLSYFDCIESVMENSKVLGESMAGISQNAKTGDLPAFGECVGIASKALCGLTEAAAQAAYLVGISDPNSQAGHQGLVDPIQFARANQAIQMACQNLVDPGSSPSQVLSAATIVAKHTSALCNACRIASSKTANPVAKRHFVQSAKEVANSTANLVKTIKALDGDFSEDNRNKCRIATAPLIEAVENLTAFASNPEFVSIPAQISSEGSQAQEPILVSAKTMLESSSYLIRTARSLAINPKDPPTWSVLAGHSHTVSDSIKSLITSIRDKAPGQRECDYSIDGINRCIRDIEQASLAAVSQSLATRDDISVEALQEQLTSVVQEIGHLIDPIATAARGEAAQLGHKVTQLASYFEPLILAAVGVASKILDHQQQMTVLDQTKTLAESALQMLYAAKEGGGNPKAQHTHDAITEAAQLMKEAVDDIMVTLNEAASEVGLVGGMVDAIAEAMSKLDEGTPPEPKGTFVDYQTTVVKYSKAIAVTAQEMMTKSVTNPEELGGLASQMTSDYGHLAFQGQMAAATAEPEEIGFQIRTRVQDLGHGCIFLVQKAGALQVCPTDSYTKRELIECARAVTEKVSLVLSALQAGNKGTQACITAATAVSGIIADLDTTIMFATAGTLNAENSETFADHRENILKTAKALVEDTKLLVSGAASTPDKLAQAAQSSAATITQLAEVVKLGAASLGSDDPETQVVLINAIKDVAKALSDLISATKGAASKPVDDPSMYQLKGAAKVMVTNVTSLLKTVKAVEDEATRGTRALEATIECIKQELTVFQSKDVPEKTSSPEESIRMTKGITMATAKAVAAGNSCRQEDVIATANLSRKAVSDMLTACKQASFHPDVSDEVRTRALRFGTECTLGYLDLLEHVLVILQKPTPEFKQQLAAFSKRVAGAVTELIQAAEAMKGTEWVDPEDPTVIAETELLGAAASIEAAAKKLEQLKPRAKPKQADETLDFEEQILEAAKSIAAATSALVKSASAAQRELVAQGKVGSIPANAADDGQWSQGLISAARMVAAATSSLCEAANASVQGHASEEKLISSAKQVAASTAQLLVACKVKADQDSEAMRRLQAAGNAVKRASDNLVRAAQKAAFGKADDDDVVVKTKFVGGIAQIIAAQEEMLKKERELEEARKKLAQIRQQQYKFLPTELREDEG"}, "source": "paper PMC9462884", "about": "“Tensin3 interaction with talin drives the formation of fibronectin-associated fibrillar adhesions” (The Journal of Cell Biology, 2022)", "molecules": {"B1": {"name": "KANK2 (protein, UniProt Q63ZY3 1-851)", "chain": "MAQVLHVPAPFPGTPGPASPPAFPAKDPDPPYSVETPYGYRLDLDFLKYVDDIEKGHTLRRVAVQRRPRLSSLPRGPGSWWTSTESLCSNASGDSRHSAYSYCGRGFYPQYGALETRGGFNPRVERTLLDARRRLEDQAATPTGLGSLTPSAAGSTASLVGVGLPPPTPRSSGLSTPVPPSAGHLAHVREQMAGALRKLRQLEEQVKLIPVLQVKLSVLQEEKRQLTVQLKSQKFLGHPTAGRGRSELCLDLPDPPEDPVALETRSVGTWVRERDLGMPDGEAALAAKVAVLETQLKKALQELQAAQARQADPQPQAWPPPDSPVRVDTVRVVEGPREVEVVASTAAGAPAQRAQSLEPYGTGLRALAMPGRPESPPVFRSQEVVETMCPVPAAATSNVHMVKKISITERSCDGAAGLPEVPAESSSSPPGSEVASLTQPEKSTGRVPTQEPTHREPTRQAASQESEEAGGTGGPPAGVRSIMKRKEEVADPTAHRRSLQFVGVNGGYESSSEDSSTAENISDNDSTENEAPEPRERVPSVAEAPQLRPAGTAAAKTSRQECQLSRESQHIPTAEGASGSNTEEEIRMELSPDLISACLALEKYLDNPNALTERELKVAYTTVLQEWLRLACRSDAHPELVRRHLVTFRAMSARLLDYVVNIADSNGNTALHYSVSHANFPVVQQLLDSGVCKVDKQNRAGYSPIMLTALATLKTQDDIETVLQLFRLGNINAKASQAGQTALMLAVSHGRVDVVKALLACEADVNVQDDDGSTALMCACEHGHKEIAGLLLAVPSCDISLTDRDGSTALMVALDAGQSEIASMLYSRMNIKCSFAPMSDDESPTSSSAEE"}}, "biological_target": "BirA-tensin3 (tensin3 with an N-terminal BirA* plus myc tag) (human) (UniProt Q68CZ2)", "assay": "proximity labelling; SILAC BioID in U2OS cells stably expressing myc-BirA*-tensin3 against myc-BirA* alone; biotin 100 µM for 16 h, NeutrAvidin capture, mass spectrometry; enriched at heavy-to-light ratio ≥2.5", "note": "No constants are given. Whether binding was seen depends on the method and setting. In cells and extracts the contact can be indirect. Here binding means that the protein was enriched with, or labelled near, the bait; the list need not be complete.", "data": [{"molecule": "talin1 (from UniProt Q9Y490 1-2541)", "values": [{"measurement": "binding", "result": "binds"}]}, {"molecule": "talin2 (from UniProt Q9Y4G6 1-2542)", "values": [{"measurement": "binding", "result": "binds"}]}, {"molecule": "B1", "values": [{"measurement": "binding", "result": "binds"}]}]}
